According to patent US20250170093A1, “ENDOPLASMIC RETICULUM PROTEIN HYOU1-BINDING COMPOUND FOR INHIBITING ENDOPLASMIC RETICULUM-MITOCHONDRIAL INTERACTION AND USES THEREOF” (UIF (University Industry Foundation), Yonsei Univeristy, priority 2023, published 2025):
For at least one compound, name, drawing or mass did not settle the structure.

Tests used:
[1] = system: ApoE−/− mice fed a high-cholesterol diet; assay: Atherosclerosis-induced animal model (ApoE-/- mice fed a high-cholesterol diet); assay type: in vivo, mouse; conditions: 20 mg/kg intraperitoneally every 2 days for 8 weeks
Procedure: Mouse experiments were performed in accordance with the ethical guidelines approved by the Institutional Animal Care and Use Committee of Yonsei University (IACUC-A-202208-1519-01). ApoE−/− mice were provided by Dr. Goo Taeg Oh (Ewha Womans University, Korea) and were housed in a pathogen-free system with a 12-hour light-dark cycle with free access to water and food. The mice were fed a high-cholesterol diet from 6 weeks after birth until the end of the experiment. At the end of the experiment, the mice were anesthetized with Avertin (2,2,2-tribromoethanol) and perfused with PBS through the left ventricle.
The outer membrane fat of the aorta isolated from the sacrificed animals was removed, dissected longitudinally, and fixed on a white silicone plate. After overnight fixation with 4% PFA, aortas were stained overnight with Oil Red O and washed with PBS. The heart and liver were then harvested and fixed overnight in 4% PFA and then placed in a 30% sucrose solution. After preparing tissues and preserving through cryopreservation (OCT) or paraffin embedding, sections were prepared for histologic analysis. For analysis of atherosclerotic lesions, the bottom of the heart, including the proximal aorta, was embedded in OCT medium, stained using the Oil Red O stain, and then quantified using the Image J software.
An atherosclerosis-induced animal model (ApoE−/− mice fed a high-cholesterol diet) was intraperitoneally injected with CTS (20 mg/kg) every 2 days for 8 weeks.

LC3 and SQSTM1 = assay: Immunofluorescence of LC3 and SQSTM1 in aortic sinus sections; assay type: in vivo, mouse; conditions: CTS group vs control group
[2] = system: mouse primary peritoneal macrophages; assay: LC3 and lipid levels in primary peritoneal macrophages of treated mice; assay type: in vivo; conditions: CTS treatment group
IP3R-VDAC1 = assay: PLA (IP3R-VDAC1) assay of tissue and macrophages from ApoE-/- mice; assay type: in vivo, mouse; conditions: vs vehicle (Veh)
p62, LC3B-II and α-SMA = assay: Western blot of autophagy and smooth muscle cell proliferation markers in PAH cell model; assay type: cell-based, human; conditions: PASMCs with TGF-β, CTS
Procedure: Human pulmonary artery smooth muscle cells (PASMCs; 4-8 passages) were cultured in an SmGM2 basal medium (Lonza, CC-3181) containing 5% FBS, supplements (Lonza, CC-4149) and 1% antibiotics.
The cells were cultured in a chamber-type cell culture slide. When they reached 70% confluence, the medium was replaced with a medium containing 0.5% FBS and the cells were incubated for 4 hours to inhibit cell proliferation. The cells were then treated with DMSO and CTS (5 μM) while simultaneously stimulating with TGF-β (5 ng/ml) for 24 hours. The level of p62, LC3 and α-SMA was confirmed by western blot.

SMILES: C[C@H]1COC2=C1C(=O)C(=O)c1c2ccc2c1CCCC2(C)C [CTS, Cryptotanshinone]
- lesion area, cross section of the proximal aorta ([1]; Oil Red O): significant reduction
- atherosclerotic plaque formation in the aorta ([1]; Oil Red O, vs control group): significantly reduced
- total cholesterol content in the blood ([1]; vs control group): reduced
- triglyceride content in the blood ([1]; vs control group): reduced
- co-localization of LC3 and SQSTM1 in aortic sinus sections (LC3 and SQSTM1): increased
- LC3 level in primary peritoneal macrophages ([2]; decrease in atherosclerosis control group): reversed
- lipid content in primary peritoneal macrophages ([2]; increase in atherosclerosis control group): reversed
- PLA (IP3R-VDAC1) dots in mouse peritoneal macrophages (IP3R-VDAC1): significantly reduced
- PLA (IP3R-VDAC1) dots in the cardiac tissue (aortic sinus sections) (IP3R-VDAC1): significantly reduced
- expression level of autophagy markers (p62 and LC3B-II) (p62, LC3B-II and α-SMA): increased
- expression level of smooth muscle cell proliferation-related marker (α-SMA) (p62, LC3B-II and α-SMA): decreased
